Results are given in words; binding and its absence hold for the method and conditions named. Some binding calls cover weakened binding; strength is not graded here. Values belong to the binder of their own block, whether it stands above or below them.
Legend:
Experiment in all cases: two-hybrid; mammalian two-hybrid; bait fused to the Gal4 DNA-binding domain (BIND), prey to the VP16 transcriptional activation domain (ACT); luciferase reporter; cultured mammalian cells, 37°C; positive from 3 times the background activity (level 1), the selected set is level 2 (>=5 to <10 times) and level 3 (>=10 times)
[1] = molecular target: PH1895, hypothetical protein (Pyrococcus horikoshii OT3) (UniProt O59525)
[2] = molecular target: PH0346, hypothetical protein (Pyrococcus horikoshii OT3) (UniProt O58084)
[3] = molecular target: PH0130, hypothetical protein (Pyrococcus horikoshii OT3) (UniProt O57870)
[4] = molecular target: PH0223, hypothetical protein (Pyrococcus horikoshii OT3) (UniProt O57962)
[5] = molecular target: PH0250, hypothetical protein (Pyrococcus horikoshii OT3) (UniProt O57988)
[6] = molecular target: PH0540, S-adenosyl-L-homocysteine hydrolase (Pyrococcus horikoshii OT3) (UniProt O58275)
[7] = molecular target: PH1528, hypothetical protein (Pyrococcus horikoshii OT3) (UniProt O59197)
[8] = molecular target: PH0406, hypothetical protein (Pyrococcus horikoshii OT3) (UniProt O58143)
[9] = molecular target: PHS017, hypothetical protein (Pyrococcus horikoshii OT3) (UniProt O73970)
[10] = molecular target: PH0187, hypothetical protein (Pyrococcus horikoshii OT3) (UniProt O57926)
[11] = molecular target: PH0197, hypothetical protein (Pyrococcus horikoshii OT3) (UniProt O57936)
[12] = molecular target: PH0690, hypothetical protein (Pyrococcus horikoshii OT3) (UniProt O58422)
[13] = molecular target: PH1120, hypothetical protein (Pyrococcus horikoshii OT3) (UniProt O58847)

binding [1]: binds
B1: PH1895, hypothetical protein (protein, UniProt O59525 1-217)
chain: MESNQTNQLVNKFLISLPEGKILGYVTDINVEVSGDQYYFILRIKTLENISRGEFHPGMFSSEKKIKIKPSDIVNVGPDVIIIGGGKVPPLREIERLGQIVEDYNALVKELEKRENEIKKLKEEKEKLERELEELKKKIRRLEVIEDDFDHLKEQLIKQEGQLEMAREYIKLLEGVRHDIDNIKANIETLLSGYIEDVVRKIVNDELNARGLKKSPI

binding [2]: binds
B2: PH0346, hypothetical protein (protein, UniProt O58084 1-103)
chain: MSRVKLGHHYYYIVTPQDLRDGKYKGKNIVIEGEIKDKPIIEFLPMELPSYRTIFRVSGFKVEFSGTPNVRMGEKVKVYGVFVGDGIIARAIETEGAIYITEE

binding [3]: binds
B3: PH0130, hypothetical protein (protein, UniProt O57870 1-218)
chain: MMFEKLESPKEFSPFKDLSKKIGGLREGDLVGIVVTDQLSHAYFLHLAVSSFPGFSYYLDLSSRLSMDVLSSLGGDPGRIFFGRVYTMGDIISSIKYVSENSLFVVGSLNALDPRKEDILALKSEISEKTLYGMVLIEEQNLNELNLPGEIRRLLIVPEVFEQILVGRISYYRGKYKLTVTVLRAYPDKLSSLGDHEFTVDEEVKKILFPNREGQQSQ

binding [4]: binds
B4: PH0223, hypothetical protein (protein, UniProt O57962 1-190)
chain: MNSMELLIIKERRIDYDGSAIRSHWAYRNFGILGDSLVVFRGKCNVKVEEMVDIEDLRLRKEIKGDDMVHYILELFWHPDILLASSLQKLLIARLVELLWNYGIEASRRGDDIYVNGRKLSISIATVSPVSIKIHIGLNVKTVGVPPGVDAIGLEELGIDPTEFMERSAKALVEEIEKVRKDSLKVRWVT

binding [5]: binds
B5: PH0250, hypothetical protein (protein, UniProt O57988 1-207)
chain: MQMNSEKFFKLFRVGETVLVEYSGTSRAELLLYYIVNNSKLPIVVDDILDTYYEFYTRLKVAGFDVAPLENVQVIKMGGTKDIGRVIGRLNISKYVISEQEYMEIVSQLKDYPVINPVLGLHKLILLGNTFENINVVKMVSNYVGREERIAFYFVNRNVIEKHSSPILDLLEEVVTSILEITDSGIIIKKSIKDEIAGKIVSPLLNF

binding [6]: binds
B6: PH0540, S-adenosyl-L-homocysteine hydrolase (protein, UniProt O58275 1-421)
chain: MDCGRDYCVKDLSLADEGWKKIDWVSRFMPVLQHIRREFEEKKPFKGVRIAATLHLEMKTAFLLLTLKAGGAEVSAAASNPLSTQDDVVAALAKAGVKVYAIRGESKEQYYEFMHKALDIRPNIIIDDGADMISLVHKERQELLDEIWGGSEETTTGVIRLRAMERDGVLRFSVIAVNDSYMKYLFDNRYGTGQSTWDGVMRATNLLIAGKNVVVVGYGWCGRGIAMRARGLGATVIVVEVDPIKALEARMDGFLVMNMKEAAKIGDIFITATGDIKCIRREHFELMKDGAIMANAGHFDVEIWKPDLEELAVEISNPRPNVTEYKLKDGRRLYLLADGRLVNLVAADGHPAEIMDMSFALQAKAAEYIKDNHGKLEPRVYILPREIDEMVARIKLASMGIEIEELTEEQKKYLESWEHGT

binding [7]: binds
B7: PH1528, hypothetical protein (protein, UniProt O59197 1-388)
chain: MEGISKPMERYDSVVFAGMKQDGTIEFIKVYALNEDLAITILDQFLRENNLHPSDFVVIQRGLEDIKGKDIISTRTEEDLSAMLARLGLRLVSNGVLHTRGAEKIYQITAISKSLIERLQGEDKDKVSTIIKEEISIDFSNLKLPEKYMKKLLLLSLMEDTFILNRAELNVPEVIKRAVKGVVSIPRLIERDNIIIKVFDEELHTVQGSYLDRVIITPPVVHWDAHIDELDSFSFQEVEENVYEPPLFVKAMKGFLVLTEPPRDLVVMLLKLKRRGEVKVSLKGRQIRIPLNFTLVVDTKYPERYSGLKFPIRINLPPFDDETFAQMLSMVLGTKVPQDLVAMFPEEYKTFLGVEILSNLWKKLRKRGRKSEIELLKEMATIVTGGII

binding [8]: binds
B8: PH0406, hypothetical protein (protein, UniProt O58143 1-147)
chain: MGKLNRVLNTKWGNIKLEDNTLIKFRVAIVDVHPFEEASPFGVEFGVNITTGISVYPSEESMRELEGKPIAPSKIPPKEGWIQIKIIEKESALEEVEYEDPELGKYKIRVEIEPVMASKNTQIKTPNGEPWYVVRWVPKITWEKIME

binding [9]: binds
B9: PHS017, hypothetical protein (protein, UniProt O73970 1-83)
chain: MKCDSGEKMSEVINVRNLIREIEDIEKRLENIKIELLKLKAQQLEAEEIDDEEADQLIREAEEAYKSGEWLTIEEFRKDVGLD

binding [10]: binds
B10: PH0187, hypothetical protein (protein, UniProt O57926 1-251)
chain: MEEPIEEKIERTVERVPTGIIDELINGGIPRGSVVLVIGDPKAGKSTFLTQFVYNQIKLGVPVIGVLVDISKYEFISNALEFGWEFTPYLDDKIILLDAYTQRLRKAPKFSFEETIVGDLSNTVNLLDAIKDTTLKILSSVKTDGVVGFISSMTPIFFETSKKEIYKFLEDLREFAHRNRQVWVLEMNSGIEEPYVETMVKAIVDGIIELRLVEEGKTLKRYLRIYGMRRTAHRLDWIEYSITSQGIKLIL

binding [11]: binds
B11: PH0197, hypothetical protein (protein, UniProt O57936 1-361)
chain: MLTEVCKMGTNKAFFTNEVPEDRYIAAEKISSLKKPATVMIIGDVDTGKTTLTIYLANELISRGFRVSIIDSDVGQKSILPPATISLAFVDTHFSSLEDLTPFAHYFVGTITPSQFFGEMVIGVMKLAELAKKFSDVVLIDTTGMIYGPGVELKRMKIEAIKPDLILALERENELTPIIKGFEDITLKLRVSDKVKEFSRSERKELRREKWKRYFENSRIVTFNVNDILVTGTSMFQGKPIEEGEKNLLERLFKWLILHGRKLGERYFVVKVDTSEGPRVVDKNVVRYFDFSKLSNLLLGLLDKEGFCQGVGILKAINFSEGRLEVLTPVKDISIITEIRFGRIRVREDGEELGLLDREVL

binding [12]: binds
B12: PH0690, hypothetical protein (protein, UniProt O58422 1-128)
chain: MREEARLLWEQALEDLKTAEVLIEVKRYYASVFFSQQAAEKALKALYIEVKREFPPKTHSLLRLSNELGIKDEEIIDAVLDLNPEYIVTRYPDAANEVPAKIYNERIAVEHLEKAKKVIEFCRQKLGL

binding [13]: binds
B13: PH1120, hypothetical protein (protein, UniProt O58847 1-397)
chain: MIEDNMKLKTGIPALDRILGGGFEKGCNIALVGGMDNDHILLTHQLTNAFLSSGKKVLLVELRQDPASLIKWLSQYNINYEEYLEDGDLKILDGFSNLYSPASISGPDVLPNPLDLGITTAIIRDNVSKEKYDILVFDDITSLYALQTDYKAYVRVIVRLTNSIRKLGASSLVAINSDVLSIQDLSMILMPFEYLIEIREGMIRFKRSFSFINVPGVPYVKTNKGIIPIEDVLKDAVSIRDSLVLTSDGVLKLGEGRVQLIGETSERSLIEFVYRFLGPEKGREFLYGWGRHEVEHLEIPKIESVEEIKEILEEAFEVTRSTGGGILRIVEATKDIIIVEGKNLFPHIRNFPYPAHVHYAGYMAKLLEKATGERWEGEEIKCESQTNDKCIFILRRV
